The supplement of paper PMC10735217
The list shows a part of the results. Single values are uncertain here, since repeats match poorly.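 In a drug-repurposing library screen, luminescence reads luciferase driven by eight TEAD-binding elements, stably integrated into human kidney-derived cells. Compounds scoring over five robust Z scores above the plate mean are called hits.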

Test system: HEK293A TEAD-LUC reporter
Test: TEAD-luciferase reporter activity (YAP activation), robust Z score vs plate; higher = stronger YAP/TEAD activation
Details: 24 h

| Structure (SMILES) | TEAD-luciferase reporter activity (compound concentration: 200 nM) | TEAD-luciferase reporter activity (compound concentration: 2 uM) | TEAD-luciferase reporter activity (compound concentration: 10 uM) |
| --- | --- | --- | --- |
| Cc1nccn1Cc1ccccn1 | inactive: 0.533 | inactive: 0.585 | inactive: 3.63 |
| CC(C)=CCOc1cc(NC(=O)c2ncsc2C)ccc1Cl | inactive: 0.498 | inactive: 1.16 | inactive: 1.49 |
| COc1ccc(C[C@@H]2NC(=O)CC3(CCCCC3)SSC[C@@H](C(=O)N3CCC[C@H]3C(=O)N[C@@H](CCCNC(=N)N)C(=O)NCC(N)=O)NC(=O)[C@H](CC(N)=O)NC(=O)[C@H](CCC(N)=O)NC(=O)[C@H](Cc3ccccc3)NC2=O)cc1 [Manning Compound] | inactive: -0.683 | inactive: 1.01 | inactive: -0.15 |
| C=C(C#N)C(=O)OCCCC [n-Butyl-2-cyanoacrylate] | inactive: -0.64 | inactive: 0.528 | inactive: -0.877 |
| CC1(C)N=C(c2cccc[n+]2[O-])c2cc(Br)c(Cl)cc2O1 | inactive: -1.88 | inactive: 0.247 | inactive: 1.64 |
| COC(=O)[C@H]1CC[C@@H]2[C@@H]3CC[C@@H]4NC(=O)C=C[C@]4(C)C3CC[C@]12C (stereo partly drawn) | inactive: -0.867 | inactive: -0.169 | inactive: -2.35 |
| O=C(Cc1cccc(Cl)c1)N1CCC(C(=O)N2CCC(c3ccccc3)CC2)CC1 | inactive: -0.886 | – | inactive: 1.1 |
| NS(=O)(=O)c1ccc(-n2nc(C(F)(F)F)cc2-c2ccc(F)cc2)cc1 [Mavacoxib] | inactive: 0.429 | inactive: -1.22 | inactive: 2.72 |
| CN1CCCCC1CCN1c2ccccc2Sc2ccc(S(C)(=O)=O)cc21 (stereo not drawn) | inactive: -1.68 | inactive: -0.927 | inactive: 2.35 |
| CCN(c1ccccc1)c1cc(NC)[n+](C)c(C)n1 | inactive: -0.979 | inactive: -1.57 | inactive: -0.233 |
| O=C(Nc1nccs1)c1c(C(Cl)Cl)nc2c(C(F)(F)F)cccc2c1O | inactive: 0.0422 | inactive: 0.953 | inactive: 1.03 |
| O=C1NCc2ccccc2CC12CCCCN2Cc1ccccc1F (stereo not drawn) | inactive: 3.06 | – | inactive: -0.418 |
| CCOc1ccccc1-n1c(C)ccc1-c1ccccc1 | inactive: -1.71 | inactive: 2.38 | inactive: 0.947 |
| CC1(C)CC(NC(=O)C(=O)Nc2ccc(Br)cc2)CC(C)(C)N1 | inactive: 1.97 | inactive: -1.19 | inactive: 0.811 |
| CCCCCCc1ccc(O)cc1O | inactive: -0.209 | inactive: 3.13 | inactive: -1.89 |
| CN(C)Cc1ccc(C2CCCCC2)cc1 | inactive: -2.22 | inactive: 1.85 | inactive: -0.56 |
| CCC/N=C1\S/C(=C/c2ccc(OCCO)c(Cl)c2)C(=O)N1c1ccccc1C | inactive: 1.75 | inactive: -0.364 | inactive: 1.45 |
| CC(C)(C)NC(=O)c1ccc(Oc2cc(F)c(CC(=O)O)cc2Cl)c(NS(=O)(=O)c2ccc(Cl)cc2)c1 | inactive: -1.04 | inactive: 0.608 | inactive: 0.809 |
| COC(=O)c1ccccc1-c1c2ccc(N)cc2[o+]c2cc(N)ccc12 [Rhodamine 123] | inactive: 2.77 | inactive: -1.07 | inactive: -0.44 |
| CC1CCOc2cccc(Oc3ccc(N4C(=O)NC(C)(C)C4=O)cn3)c21 (stereo not drawn) | inactive: -1.75 | inactive: -0.00445 | inactive: 0.452 |
| CO[C@H]1C=CC=C(C)C(=O)NC2=CC(=O)C(N)=C(C[C@@H](C)C[C@H](OC)[C@H](O)[C@@H](C)C=C(C)[C@@H]1OC(N)=O)C2=O [17-Aminogeldanamycin] | inactive: -2.19 | inactive: -0.619 | inactive: -1.46 |
| CC(CN1CCCCC1)C(=O)c1ccc2ccccc2c1 (stereo not drawn) | inactive: -0.851 | inactive: -1.08 | inactive: 0.0934 |
| COc1ccc(CN2CCCCC23Cc2ccccc2CNC3=O)cc1 (stereo not drawn) | inactive: -1.72 | – | inactive: -0.931 |
| CCCCCCCCCCCCCCCCCCOCC1(COP(=O)([O-])OCC[N+](C)(C)C)CCCO1 (stereo not drawn) | inactive: 0.823 | inactive: -0.849 | inactive: 0.143 |
| O=C(N[C@H](C(=O)O)c1ccccc1)c1ccc(-c2ccc(C(F)(F)F)cc2)cc1 | inactive: -0.81 | inactive: -1.42 | inactive: 0.166 |
| CCCC(F)(F)C[C@H](N[C@@H](c1ccc(F)cc1)C(F)(F)F)C(=O)NC1(C#N)CC1 | inactive: -1.69 | inactive: -1.46 | inactive: -1.16 |
| C[C@H]1COc2c(C3(N)CC3)c(F)cc3c(=O)c(C(=O)O)cn1c23 | inactive: -1.58 | – | inactive: -2.06 |
| C[C@H]1COc2c(C3(N)CC3)c(F)cc3c(=O)c(C(=O)O)cn1c23 [pazufloxacin] | – | inactive: -0.654 | – |

Eight entries from above, set out differently.
Structure (SMILES) | TEAD-luciferase reporter activity (compound concentration: 200 nM) | TEAD-luciferase reporter activity (compound concentration: 2 uM) | TEAD-luciferase reporter activity (compound concentration: 10 uM)
CC(C)=CCOc1cc(NC(=O)c2ncsc2C)ccc1Cl | inactive: 0.498 | inactive: 1.16 | inactive: 1.49
COC(=O)[C@H]1CC[C@@H]2[C@@H]3CC[C@@H]4NC(=O)C=C[C@]4(C)C3CC[C@]12C (stereo partly drawn) | inactive: -0.867 | inactive: -0.169 | inactive: -2.35
CCN(c1ccccc1)c1cc(NC)[n+](C)c(C)n1 | inactive: -0.979 | inactive: -1.57 | inactive: -0.233
CCOc1ccccc1-n1c(C)ccc1-c1ccccc1 | inactive: -1.71 | inactive: 2.38 | inactive: 0.947
CN(C)Cc1ccc(C2CCCCC2)cc1 | inactive: -2.22 | inactive: 1.85 | inactive: -0.56
CCC/N=C1\S/C(=C/c2ccc(OCCO)c(Cl)c2)C(=O)N1c1ccccc1C | inactive: 1.75 | inactive: -0.364 | inactive: 1.45
CCCC(F)(F)C[C@H](N[C@@H](c1ccc(F)cc1)C(F)(F)F)C(=O)NC1(C#N)CC1 | inactive: -1.69 | inactive: -1.46 | inactive: -1.16
C[C@H]1COc2c(C3(N)CC3)c(F)cc3c(=O)c(C(=O)O)cn1c23 | inactive: -1.58 | – | inactive: -2.06
